Data reported in PubChem BioAssay AID1508624 (National Center for Advancing Translational Sciences (NCATS), 2021).
This list holds what a sample rich in hits left over. Results filed as inconclusive are left out. Active and inactive are the calls of the source. The call rests on the fitted dose curve; in most records, active means well fitted activation curve with a large enough effect; inconclusive means small, poorly fitted or top-dose-only effect, or another doubt; inactive means no such curve, though single readings can be large or run the other way.

assay: Primary qHTS for Identification of Small Molecule Activators of Huntingtin-Antisense Promoter Activity; conditions: HEK293 HTT-AS promoter firefly luciferase reporter (activity 0% = vehicle and -100% = no light), 24 h; at 57.5 µM (top of the series); further: nearly all actives have a fitted effect of over 55% in size
Text: Assay Provider: Russell L. Margolis M.D.
Department Neurology, Johns Hopkins University School of Medicine, Baltimore, MD
Huntington's Disease (HD) is a neurodegenerative disorder caused by a CAG repeat expansion in exon 1 of huntingtin (HTT). While there are currently no disease-modifying treatments for HD, recent efforts have focused on development of nucleotide-based therapeutics to lower HTT expression. As an alternative to siRNA or oligonucleotide methods, we hypothesized that suppression of HTT expression might be accomplished by small molecules that either (1) directly decrease HTT expression by suppressing HTT promoter activity or (2) indirectly decrease HTT expression by increasing the promoter activity of HTT-AS, the gene antisense to HTT that appears to inhibit expression of HTT. […]
7; Detection; Luminescence; FLuc […]
1; High-throughput screening, measuring luminescence from a Hek293 luciferase reporter, was performed in 1,536 well white-walled tissue-culture treated plates. […]
4; Cells were then incubated for 24 hours at 37 degrees C prior to luminescence measurements.
5; In all cases, luminescence was measured using the Dual-Glo Luciferase Reporter Assay System (Promega) following the manufacturer's instructions. […]
7; Luminescence signal was obtained using the PerkinElmer ViewLux plate reader. […]

**Q.** Which activity change, positive = activation does the source give for `CC(C)(C)c1ccc(O)cc1` here?
**A.** inactive: 0.659%
